Our source for the binding values is paper PMC6018503.

Results are given in words; binding and its absence hold for the method and conditions named. For some assays here: Binding can be weak; no strength is given. For some assays here: In cells and extracts the contact can be indirect.

Assay [1] has as its target T1, AtRFC2 (Arabidopsis thaliana) (UniProt Q9CAM7).
T1 sequence: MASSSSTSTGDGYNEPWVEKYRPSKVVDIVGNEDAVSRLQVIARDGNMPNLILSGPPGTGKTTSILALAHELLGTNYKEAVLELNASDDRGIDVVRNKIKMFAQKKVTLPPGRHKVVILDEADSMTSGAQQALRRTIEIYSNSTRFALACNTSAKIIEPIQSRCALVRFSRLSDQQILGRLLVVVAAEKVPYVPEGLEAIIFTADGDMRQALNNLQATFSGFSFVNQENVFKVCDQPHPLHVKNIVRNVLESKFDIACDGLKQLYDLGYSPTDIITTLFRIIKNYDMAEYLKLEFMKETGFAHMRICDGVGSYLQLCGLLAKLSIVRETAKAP
Description: split reporter; BiFC; YFP^N (aa 1-155) and YFP^C (aa 156-239) fusions (pCAMBIA-SPYNE, pCAMBIA-SPYCE) co-expressed in tobacco (Nicotiana benthamiana) leaf epidermal cells through Agrobacterium GV3101; confocal microscopy of YFP; only the two named fusions.

Assay [2] concerns the target AtRFC3 (Arabidopsis thaliana). The description is as above.
The target in assay [3] is AtRFC3 (Arabidopsis thaliana). Kind of assay: two-hybrid; yeast two-hybrid; full-length ORFs in pGADT7 (AD) and pGBKT7 (BD); co-transformed strains spotted on SD-L-T and SD-L-T-H-A plates; empty AD or BD plasmids as negative controls.
The target of assay [4] is AtRFC3 (Arabidopsis thaliana). Kind of assay: split reporter; BiFC in tobacco leaf epidermal cells with truncated AtRFC proteins, pairs that include AtRFC1 or a truncated AtRFC1; whether the other small subunits were co-expressed is not said.

With “AtRFC3 Δ1–247 (Arabidopsis thaliana) (domain or fragment)”, in assay [1], the binding result is listed as “binds”.

B1: AtRFC2 Δ1–224 (domain or fragment, UniProt Q9CAM7 225-333)
chain: VNQENVFKVCDQPHPLHVKNIVRNVLESKFDIACDGLKQLYDLGYSPTDIITTLFRIIKNYDMAEYLKLEFMKETGFAHMRICDGVGSYLQLCGLLAKLSIVRETAKAP
On to B1, for which the binding result in assay [2] is “no binding”.

B2: OsRFC4 (protein, UniProt Q7XRX1 1-335)
chain: MDASSSSAPDLADAYDIPWVEKYRPTRVADVGGNSDAVARLQDIARDGNMPNLILSGPPGTGKTTSILSLAHELLGPSYREAVLELNASDDRGLDVVRNKIKMFAQKKVTLQPGRHKIVILDEADSMTSGAQQALRRTMEIYSNTTRFALACNTSSKIIEPIQSRCAIVRFSRLSDQEILGRLMIVVAAEKVPYVPEGLEAIIFTADGDMRQALNNLQATVSGFRFVNQENVFKVCDQPHPLHVKNMVKNVLDGKFDEACSALKQLYDLGYSPTDIITTLFRVIKNYDMAEYLKLELLKETGFAHMRICDGVGSFLQLSGLLAKFALVRETAKAS
Regarding B2, the binding result in assay [2] was “binds”.

B3: AtRFC4 Δ1–213 (domain or fragment, UniProt Q93ZX1 214-339)
chain: ITYLQSATRLFGSTITSTDLLNVSGVVPLEVVNKLFTACKSGDFDIANKEVDNIVAEGYPASQIINQLFDIVAEADSDITDMQKAKICKCLAETDKRLVDGADEYLQLLDVASSTICALSEMAQDF
B3: in assay [2], the binding entry is recorded as “binds”.

B4: AtRFC2 (protein, UniProt Q9CAM7 1-333)
chain: T1 sequence
For the molecule B4, in assay [3], the binding result is reported as “binds”.

B5: AtRFC1 Δ897-956 (domain or fragment, UniProt Q9C587 1-896)
chain: MSDIRKWFMKAHEKGNGSAPKSTSSKAGPVKNAAETAPIKSEQASEDLETADRRKTSKYFGKDKTKVKDEKEVEAIPAKRKLKTESDDLVKPRPRKVTKVVDDDDDDFDVPISRKTRDTTPSKKLKSGSGRGIASKTVDNDDDDDGEDKETPLKSAGRGRGGRAAPGASTGGRGRGGGRGGFMNFGERKDPPHKGEKEVPEGTPDCLAGLTFVISGTLDSLEREEAEDLIKRHGGRITGSVSKKTTYLLCDEDIGGRKSEKAKELGTKFLTEDGLFDIIRSSKPVKKSLPERSNKGTEKICAPPKTSPQKEETRGKPLAKSSPKKVPPAKGKNKIIETSLPWTEKYRPKVPNEIVGNQSLVTQLHNWLSHWHDQFGGTGSKGKGKKLNDAGSKKAVLLSGTPGIGKTTSAKLVSQMLGFQAVEVNASDSRGKANSNIAKGIGGSNANSVKELVNNEAMAANFDRSKHPKTVLIMDEVDGMSAGDRGGVADLIASIKISKIPIICICNDRYSQKLKSLVNYCLPLNYRKPTKQQMAKRLMHIAKAEGLEINEIALEELAERVNGDIRLAVNQLQYMSLSMSVIKYDDIRQRLLSSAKDEDISPFTAVDKLFGYNGGKLRMDERIDLSMSDPDLVPLLIQENYLNYRPSGKDEAKRMDLLARAAESIADGDIINVQIRRYRQWQLSQSCCVASSILPASLLHGSREVLEQGERNFNRFGGWLGKNSTAGKNRRLMEDLHVHVLASRESSAGRETLRVDYLPLLLSRLTSPLQTLPKDEAVSEVVDFMNSYSISQEDFDTILELGKFKGRENPMEGVPPPVKAALTKKYNEMNKTRMVRVADMVQLPGVKKAPKKRIAAMLEPTVDSLRDEDGEPLADNEEGNGSDAEEDSEEATDGEK
Take B5: in assay [4], the binding result is “no binding”.

B6: AtRFC1 (protein, UniProt Q9C587 1-956)
chain: MSDIRKWFMKAHEKGNGSAPKSTSSKAGPVKNAAETAPIKSEQASEDLETADRRKTSKYFGKDKTKVKDEKEVEAIPAKRKLKTESDDLVKPRPRKVTKVVDDDDDDFDVPISRKTRDTTPSKKLKSGSGRGIASKTVDNDDDDDGEDKETPLKSAGRGRGGRAAPGASTGGRGRGGGRGGFMNFGERKDPPHKGEKEVPEGTPDCLAGLTFVISGTLDSLEREEAEDLIKRHGGRITGSVSKKTTYLLCDEDIGGRKSEKAKELGTKFLTEDGLFDIIRSSKPVKKSLPERSNKGTEKICAPPKTSPQKEETRGKPLAKSSPKKVPPAKGKNKIIETSLPWTEKYRPKVPNEIVGNQSLVTQLHNWLSHWHDQFGGTGSKGKGKKLNDAGSKKAVLLSGTPGIGKTTSAKLVSQMLGFQAVEVNASDSRGKANSNIAKGIGGSNANSVKELVNNEAMAANFDRSKHPKTVLIMDEVDGMSAGDRGGVADLIASIKISKIPIICICNDRYSQKLKSLVNYCLPLNYRKPTKQQMAKRLMHIAKAEGLEINEIALEELAERVNGDIRLAVNQLQYMSLSMSVIKYDDIRQRLLSSAKDEDISPFTAVDKLFGYNGGKLRMDERIDLSMSDPDLVPLLIQENYLNYRPSGKDEAKRMDLLARAAESIADGDIINVQIRRYRQWQLSQSCCVASSILPASLLHGSREVLEQGERNFNRFGGWLGKNSTAGKNRRLMEDLHVHVLASRESSAGRETLRVDYLPLLLSRLTSPLQTLPKDEAVSEVVDFMNSYSISQEDFDTILELGKFKGRENPMEGVPPPVKAALTKKYNEMNKTRMVRVADMVQLPGVKKAPKKRIAAMLEPTVDSLRDEDGEPLADNEEGNGSDAEEDSEEATDGEKLESNLKNLNARGIQVELDLKGAGSSGSRKAAGKGRGRGKAADTSAEKKATGRGSGAKRKR
As to B6, the binding entry in assay [3] is “no binding”.

B7: AtRFC2 Δ314–333 (domain or fragment, UniProt Q9CAM7 1-313)
chain: MASSSSTSTGDGYNEPWVEKYRPSKVVDIVGNEDAVSRLQVIARDGNMPNLILSGPPGTGKTTSILALAHELLGTNYKEAVLELNASDDRGIDVVRNKIKMFAQKKVTLPPGRHKVVILDEADSMTSGAQQALRRTIEIYSNSTRFALACNTSAKIIEPIQSRCALVRFSRLSDQQILGRLLVVVAAEKVPYVPEGLEAIIFTADGDMRQALNNLQATFSGFSFVNQENVFKVCDQPHPLHVKNIVRNVLESKFDIACDGLKQLYDLGYSPTDIITTLFRIIKNYDMAEYLKLEFMKETGFAHMRICDGVGSY
With B7, the binding result in assay [2] is given as “no binding”.

B8: OsRFC1 (protein, UniProt Q2R2B4 1-1021)
chain: MSSDIRKWFMKAQDKNGGAAKPAGTTALAKKPVLSIPEKPSAAPSMAACDQDCSARRKTSKYFASKTEKEEDTSAGKGTGRGLPKRKLQKVSDELEDDMKPLPAKEVHKEEEDDDDDDFVAPSKRKTPVKPPPSKKLKGASTAEAHGKTGLDDDNEDKMDEDAKTPSKASGSGRGRGRGRGRGGRGAGAAHGKTIGLDDDGEEDKMDEDAKTPSKAAGRGRGGASGGRGRGGGGRGFMNFGERKDPPHKGEKEVPEGAPDCLTGLTFVISGTLDSLEREEATDLIKRYGGRVTGSISKKTNYLLADEDVGGVKSNKAKELGVPFLTEDGLFDMIRKSKPAKATVAKHQSDKNSEKQQKSPMKSSPVKVERRDGNQITTGKNISPKSNKGSASIDNQKVNIVDRGSLQWTEKYRPKVPNDIVGNQSMVKQLHDWLRSWEDQFLHSGQKGKGKKQADSGAKKAVLLSGPPGIGKTTTAKVVSQMLGLQAIEVNASDSRGKADSKIEKGVGGSTSNSIKELISNATLNYSNNRLKRPKAVLVMDEVDGMSAGDRGGVADLIASIKMSKIPIICICNDRYSQKLKSLVNYCLLLNFRKPTKQQMGKRLMEIAKKEGLQAQENAMEELAERVHGDIRMALNHLQYMSLSQSVVKYDDIRQRLNSSTKDEDISPFTAVDKLFGFNGGRLRMDERIDLSMSDPDLVPLIIQENYINYRPITVGKDDSGVKRMNFLARAAESIADADIVNVQIRRYRQWQLSQAACLSSSIVPAALMHGNREILEAGERNFNRFGGWLGKYSTTNKNIRLLEDAHSHILASQQANLDRESLRLDYLTLLLRQLTDPLKTMPKDEAVQKVVEFMDTYSLSQEDFDTIVELSKFKGHPNPMDGIQPAVKSALTKAYKQGSSSRVVRAADLVNIPGMKKPLKKRVAAILEPVGESLPEENGVASSEGDEEDSSDAENNDELVPGDTKPKLDLQSDKKKGIQVQLDLKSNGNGLNSKKMPAGRSKASGSAGKAAGGSGGKRKR
Regarding B8, in assay [2], the binding entry is listed as “binds”.

B9: AtRFC2 Δ294–333 (domain or fragment, UniProt Q9CAM7 1-293)
chain: MASSSSTSTGDGYNEPWVEKYRPSKVVDIVGNEDAVSRLQVIARDGNMPNLILSGPPGTGKTTSILALAHELLGTNYKEAVLELNASDDRGIDVVRNKIKMFAQKKVTLPPGRHKVVILDEADSMTSGAQQALRRTIEIYSNSTRFALACNTSAKIIEPIQSRCALVRFSRLSDQQILGRLLVVVAAEKVPYVPEGLEAIIFTADGDMRQALNNLQATFSGFSFVNQENVFKVCDQPHPLHVKNIVRNVLESKFDIACDGLKQLYDLGYSPTDIITTLFRIIKNYDMAEYLKL
As to B9, the binding entry in assay [2] is recorded as “no binding”.

B10: AtRFC5 (protein, UniProt Q8VXX4 1-354)
chain: MLWVDKYRPKSLDKVIVHEDIAQKLKKLVSEQDCPHLLFYGPSGSGKKTLIMALLKQIYGASAEKVKVENRAWKVDAGSRTIDLELTTLSSTNHVELTPSDAGFQDRYIVQEIIKEMAKNRPIDTKGKKGYKVLVLNEVDKLSREAQHSLRRTMEKYSSSCRLILCCNSSSKVTEAIKSRCLNVRINAPSQEEIVKVLEFVAKKESLQLPQGFAARIAEKSNRSLRRAILSLETCRVQNYPFTGNQVISPMDWEEYVAEIATDMMKEQSPKKLFQVRGKVYELLVNCIPPEVILKRLLHELLKKLDSELKLEVCHWAAYYEHRMRLGQKAIFHIEAFVAKFMSIYKNFLISTFG
On to B10, for which the binding entry in assay [3] is on record as “no binding”.
